# According to the supplement of paper PMC7024190:
# Where a name gives a salt, the structure may show the parent alone. This is one part of the list. Single values are uncertain here, since repeats match poorly.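 A first-round screen of about ten thousand compounds sought those raising reporter output, using human embryonic kidney cells briefly transfected with a plasmid carrying a Renilla luciferase gene driven by the HSV-TK promoter.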
# Test system: HEK 293FT
# Assay: log relative Renilla luciferase luminescence (reporter expression vs reference, reference not stated) (log (base not stated)); higher = higher recombinant reporter expression
# Conditions: 10 µM; time after transfection 48 h
row,Structure (SMILES),log
1,COc1cc2c(cc1OC)-c1cc3nc4ccccc4nc3n1C(C)(C)C2,-0.0108
2,CCOC(=O)C1=C(C)NC(=S)NC1c1cccc(O)c1 (configuration not stated) [Monastrol],-0.0369
3,OCC(CO)N[C@H]1C[C@](O)(CO)[C@@H](O)[C@H](O)[C@H]1O [Voglibose],0.00213
4,Cc1c(OCC(F)(F)F)ccnc1C[S+]([O-])c1nc2ccccc2[nH]1 (configuration not stated) [Lansoprazole],-0.287
5,CC1(C)CC(=O)C(C2C3=C(CC(C)(C)CC3=O)Oc3ccccc32)C(=O)C1 (configuration not stated),-0.0311
6,COc1ccc2[nH]c([S+]([O-])Cc3ncc(C)c(OC)c3C)nc2c1 (configuration not stated) [Omeprazole],-0.19
7,CC(CCc1ccc(O)cc1)NCCc1ccc(O)c(O)c1 (configuration not stated) [Dobutamine hydrochloride],-0.0916

# A different layout for some results above.
row | Structure (SMILES) | log
5 | CC1(C)CC(=O)C(C2C3=C(CC(C)(C)CC3=O)Oc3ccccc32)C(=O)C1 (configuration not stated) | -0.0311
6 | COc1ccc2[nH]c([S+]([O-])Cc3ncc(C)c(OC)c3C)nc2c1 (configuration not stated) [Omeprazole] | -0.19
